Assay results reported in PubChem BioAssay AID504467 (National Center for Advancing Translational Sciences (NCATS), 2011).
About 7,700 (2.3%) of roughly 330,000 compounds were called active. This list was built around the results that the source calls inconclusive (neither active nor inactive); the mix of calls is not that of the screen. Calls come from the whole dose curve; as a rule, active = well fitted inhibition curve with a large enough effect; inconclusive = small, poorly fitted or top-dose-only effect, or effect the other way; inactive = flat fitted curve, though single readings scatter. Potencies beside an inconclusive call are fits to weak or partial responses and may not hold up.

Test: qHTS screen for small molecules that inhibit ELG1-dependent DNA repair in human embryonic kidney (HEK293T) cells expressing luciferase-tagged ELG1; note: nearly all actives have a fitted effect of over 55% in size
Conditions: HEK293T ELG1-luciferase reporter, luminescence, 16 h, DNA damage induced by 5-fluorouridine; series mostly up to 46.1 µM
Summary of the method: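 Overnight (16 hr) co-exposure of 2,000 cells/well to 5-fluorouridine and compound at 37 °C preceded detection. Luciferase was quantified via ONE-Glo luminescence; loss of signal denotes inhibition.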
Potency is the fitted concentration of half-maximal effect.

| SMILES | Potency |
| --- | --- |
| CN(C)C=Nc1ncc2c3ccccc3n(Cc3ccccc3)c2c1C#N | inactive |
| CN(CC(=O)Nc1ccc(Cl)c(C(F)(F)F)c1)C(=O)CCCNC(=O)c1ccc(Cl)cc1 | inactive |
| CN(C)S(=O)(=O)c1cccc(NC(=O)COC(=O)/C=C/c2ccc(Br)o2)c1 | inactive |
| CC1CCCCC1NC(=O)CN1C(=O)CSc2cc(S(=O)(=O)N3CCCCCC3)ccc21 (configuration not stated) | inconclusive: 32.6 µM [inhibitor, single point] |
| CC(=O)c1c(C)[nH]c(C(=O)Nc2ccccc2Cl)c1C | inconclusive: 20.6 µM [activator, partial curve] |
| Cc1ccc2cc(CN(c3ccc(C)c(C)c3)S(C)(=O)=O)c(=O)[nH]c2c1 | inconclusive: 32.6 µM [inhibitor, partial curve, poor fit] |
| Cc1ccc(S(=O)(=O)C/N=C(/NC(=S)N(c2ccccc2)c2ccccc2)c2ccccc2)cc1 | inconclusive: 29.1 µM [activator, single point] |
| O=C(Cc1ccccn1)c1ccc(Cl)cc1 | inconclusive: 7.94 µM [activator, single point] |
| CC(C)c1ccc2oc(=O)cc(CN3CCOCC3)c2c1 | inconclusive: 16.4 µM [activator, partial curve, poor fit] |
| CC1(C)CC(=O)C2=C(C1)NC(=O)NC2c1ccc(Cl)cc1 (configuration not stated) | inconclusive: 13 µM [inhibitor, partial curve, poor fit] |
| c1ccc(CNc2nc(-c3cccnc3)nc3ccccc23)cc1 | inconclusive: 23.1 µM [inhibitor, partial curve, poor fit] |
| Cc1ccc(C)c(Cn2nc(-c3cc(C)ccc3C)ccc2=O)c1 | inconclusive: 20.6 µM [inhibitor, single point] |
| CC(C)(C)c1nc(CN2CCOCC2)cc(CN2CCOCC2)c1O | inconclusive: 20.6 µM [activator, partial curve, poor fit] |
| CCN1CCN(C(=O)c2cccc(OC3CCN(S(=O)(=O)N(C)C)CC3)c2)CC1 | inconclusive: 13 µM [activator, partial curve] |
| CCc1ccc(Nc2cnn(-c3nc4ccccc4s3)c(=O)c2Cl)cc1 | inconclusive: 14.6 µM [activator, partial curve] |
| Cc1ccc(NC(=O)CCn2nnc3ccccc32)cc1 | inconclusive: 20.6 µM [activator, partial curve] |
| COc1ccc(C2CC(c3ccc4ccccc4c3)=NN2C(=O)CN2CCC(C(N)=O)CC2)cc1 (configuration not stated) | inactive |
| CCOC(=O)CCCc1ccc(/C(C)=N/NC(N)=S)cc1 | active: 9.2 µM |
| CCCCOC1CC(c2ccc(OCc3ccc(OC)cc3)c(OC)c2)N(C)O1 (configuration not stated) | inconclusive: 20.6 µM [inhibitor, single point] |
| CCCCCCC(=O)Nc1ccc(C(=O)N/N=C/c2cccnc2)cc1 | inactive |
| CCN(CC)c1ccc(C(=O)OCC(=O)c2ccco2)cc1 | inconclusive: 14.6 µM [activator, partial curve] |
| O=c1c(Cl)c(Cl)cnn1Cc1nnc(-c2ccc(Cl)cc2)o1 | inconclusive: 16.4 µM [inhibitor, single point] |
| Cc1ccc(S(=O)(=O)C2(C(=O)NC3CCCC3)CC2)cc1 | inactive |

| SMILES | Potency |
| --- | --- |
| O=C(Nc1ccn(Cc2c(F)c(F)c(F)c(F)c2F)n1)c1cccc(Cn2cc([N+](=O)[O-])cn2)c1 | inconclusive: 16.4 µM [inhibitor, single point] |
| NC(=O)C1CCN(C(=O)CN2C(=O)c3ccccc3S2(=O)=O)CC1 | inactive |
| COc1cc(OC)c(OC)cc1/C=N/N(C)c1ccccc1 | inconclusive: 29.1 µM [inhibitor, single point] |
| COc1ccc(OC)c2c1C(=O)C(Cl)=C(Cl)C2=O | active: 20.6 µM |
| Cc1cc2ccccc2c(=O)n1CC(=O)N(C)c1ccc(F)cc1 | inactive |
| Cc1ccc(-c2c(C(=O)N/N=C/c3ccc(OC(C)C)cc3)nnn2-c2nonc2N)cc1 | inactive |
| Cc1ccc(S(=O)(=O)Nc2ccccc2/C=N/c2nc3ccccc3n2C(C)C)cc1 | inconclusive: 16.4 µM [inhibitor, partial curve] |
| Cc1ccc(NC(=O)CN2CCCCCC2)cc1[N+](=O)[O-] | inconclusive: 29.1 µM [activator, single point] |
| CCOC(=O)CN1C(=O)/C(=C/c2ccccc2Br)Oc2ccccc21 | inconclusive: 16.4 µM [activator, single point] |
| COCc1cc(N2CCN(c3ccccc3F)CC2)nc(-c2ccccc2)n1 | inconclusive: 23.1 µM [inhibitor, partial curve, poor fit] |
| CCC(=O)N(C1=C(NC)C(=O)c2ccccc2C1=O)C(C)C | inconclusive: 9.2 µM [inhibitor, partial curve, poor fit] |
| COc1ccc(C(=O)Nc2ccc(C3(C#N)CCCC3)cc2)cc1OC | inconclusive: 11.2 µM [activator, partial curve] |
| Cc1cccc(NC(=O)c2nc[nH]c2C(=O)N[C@@H](Cc2ccccc2)C(=O)OC(C)(C)C)c1 | inconclusive: 29.1 µM [inhibitor, single point] |
| CCSC1(SCC)N=C(N)C2(C#N)C(c3ccc(OC)c(OC)c3OC)C12C#N (configuration not stated) | active: 14.6 µM |
| Cc1ccccc1OCC(=O)Nc1ccc(N2CCN(C(=O)C(C)C)CC2)c(Cl)c1 | inconclusive: 29.1 µM [inhibitor, single point] |
| CC1CCCN(C(=O)COC(=O)Cc2c(F)cccc2Cl)C1 (configuration not stated) | inconclusive: 18.3 µM [activator, single point] |
| COc1ccc(C2(C(=O)Nc3ccc(OC)cc3OC)CCCC2)cc1 | inconclusive: 20.6 µM [inhibitor, single point] |
| CCOC(=O)C1CCN(c2ncnc3c2c(-c2ccccc2)cn3-c2ccccc2)CC1 | inconclusive: 20.6 µM [inhibitor, partial curve] |
| CCN(CC)Cc1c(O)ccc2c([N+](=O)[O-])c(C)n(-c3ccc(OC)cc3)c12 | active: 2.31 µM |
| CCOC(=O)C1(Cc2ccccc2)CCCN(Cc2cccc(C(C)=O)c2)C1 (configuration not stated) | inconclusive: 32.6 µM [inhibitor, partial curve, poor fit] |
| COc1cccc(C(=O)CC(=O)C(=O)Nc2cc(OC)ccc2OC)c1 | inconclusive: 14.6 µM [inhibitor, partial curve] |
| COC(=O)c1cccc(S(=O)(=O)N(Cc2ccco2)Cc2cc3cc(OC)c(OC)cc3[nH]c2=O)c1 | active: 23.1 µM |
| c1ccc(-c2nnc(CSc3nncs3)o2)cc1 | inconclusive: 18.4 µM [activator, partial curve] |

| SMILES | Potency |
| --- | --- |
| CCOc1cccc(CN2CCC(n3nccc3NC(=O)CCCc3ccccc3)CC2)c1 | active: 6.51 µM |
| CCOc1ccc(Nc2nc(N)nc(CSC(=S)N3CCOCC3)n2)cc1 | inconclusive: 0.184 µM [activator, full curve] |
| Nc1nc(SCc2ccc(Cl)cc2Cl)ns1 | inconclusive: 29.1 µM [activator, single point] |
| CCN(CC)c1ccc(/C=N/NC(=O)Cc2nnc(NC(=O)Nc3ccccc3)s2)cc1 | inactive |
| CC(=C/c1ccccc1)/C=N/n1c(-c2ccncc2)n[nH]c1=S | active: 2.31 µM |
| O=C(O)c1cnn(-c2nc(-c3ccc(Cl)c(Cl)c3)cs2)c1C(F)(F)F | inconclusive: 25.9 µM [activator, single point] |
| O=C1c2cccc3cccc(c23)C(=O)N1CCN1CCN(CC(O)COCc2ccc(Cl)cc2)CC1 (configuration not stated) | active: 20.6 µM |
| COc1ccc(Br)cc1CNc1ccc(O)cc1 | inconclusive: 23.1 µM [inhibitor, partial curve, poor fit] |
| CCOc1ccc(C(NC(=O)c2ccco2)c2ccc(OC)c(OC)c2)cc1 (configuration not stated) | inactive |
| COc1cccc(-c2nc(-c3ccc4c(c3)NC(=O)CO4)cs2)c1 | inconclusive: 6.51 µM [activator, single point] |
| CCOc1cc(N2CCOCC2)c(OCC)cc1NC(=O)COC(=O)c1ccccc1C | inconclusive: 9.2 µM [inhibitor, partial curve, poor fit] |
| COc1ccc(S(=O)(=O)Nc2ccc3c(c2)n(C)c(=O)n3C)cc1OC | inconclusive: 20.6 µM [activator, partial curve] |
| COc1cccc(NC(=O)CN2CCSc3ccccc32)c1 | inactive |
| O=C(O)c1cc(-c2ccc(/C=N/NC(=S)Nc3ccccc3)o2)ccc1Cl | inconclusive: 29.1 µM [activator, single point] |
| CC(C(=O)Nc1nc(-c2ccc(F)c(F)c2)cs1)N1C(=O)C2CC=CCC2C1=O (configuration not stated) | inconclusive: 9.2 µM [inhibitor, partial curve, poor fit] |
| Cc1ccc(N=C2NC(=O)c3cc([N+](=O)[O-])ccc32)cc1 | inconclusive: 23.1 µM [activator, single point] |
| CC(C)C(=O)Nc1nnc(-c2ccccc2)o1 | inconclusive: 20.6 µM [activator, single point] |
| O=C(CSc1nnc(C2COc3ccccc3O2)o1)N1CCCC1 (configuration not stated) | inconclusive: 16.4 µM [activator, partial curve] |
| CC(=O)c1ccc(Nc2cc(C)nc3ccc(C)cc23)cc1 | inconclusive: 32.6 µM [inhibitor, single point] |
| O=C(CSc1nnc(-c2ccccc2)n1Cc1ccco1)Nc1ccc(S(=O)(=O)N2CCCC2)cc1 | inconclusive: 29.1 µM [inhibitor, single point] |
| CCN1CCN(c2c(S(=O)(=O)c3ccc(C)c(C)c3)cnc3ccc(F)cc23)CC1 | inactive |

Part of the list above, with bars between the fields.
SMILES | Potency
CCOc1cccc(CN2CCC(n3nccc3NC(=O)CCCc3ccccc3)CC2)c1 | active: 6.51 µM
CCOc1ccc(Nc2nc(N)nc(CSC(=S)N3CCOCC3)n2)cc1 | inconclusive: 0.184 µM [activator, full curve]
